Assay results as given in doi:10.1101/2022.01.26.477835.
No constants are given. Whether binding was seen depends on the method and setting. Binding seen in cells or lysates may run through a third protein. Some results given as binding are weak or reduced against the parent protein; the word gives no strength. Where a sequence is shown, tags or fusion partners need not be part of it.

B1: Flag-tagged full-length TRPM8 (Flag-TRPM8), Q8R455 1-1104 (protein)
chain: MSFEGARLSMRSRRNGTLGSTRTLYSSVSRSTDVSYSESDLVNFIQANFKKRECVFFTRDSKAMESICKCGYAQSQHIEGTQINQNEKWNYKKHTKEFPTDAFGDIQFETLGKKGKYLRLSCDTDSETLYELLTQHWHLKTPNLVISVTGGAKNFALKPRMRKIFSRLIYIAQSKGAWILTGGTHYGLMKYIGEVVRDNTISRNSEENIVAIGIAAWGMVSNRDTLIRNCDDEGHFSAQYIMDDFMRDPLYILDNNHTHLLLVDNGCHGHPTVEAKLRNQLEKYISERTSQDSNYGGKIPIVCFAQGGGRETLKAINTSVKSKIPCVVVEGSGQIADVIASLVEVEDVLTSSMVKEKLVRFLPRTVSRLPEEEIESWIKWLKEILESPHLLTVIKMEEAGDEVVSSAISYALYKAFSTNEQDKDNWNGQLKLLLEWNQLDLASDEIFTNDRRWESADLQEVMFTALIKDRPKFVRLFLENGLNLQKFLTNEVLTELFSTHFSTLVYRNLQIAKNSYNDALLTFVWKLVANFRRSFWKEDRSSREDLDVELHDASLTTRHPLQALFIWAILQNKKELSKVIWEQTKGCTLAALGASKLLKTLAKVKNDINAAGESEELANEYETRAVELFTECYSSDEDLAEQLLVYSCEAWGGSNCLELAVEATDQHFIAQPGVQNFLSKQWYGEISRDTKNWKIILCLFIIPLVGCGLVSFRKKPIDKHKKLLWYYVAFFTSPFVVFSWNVVFYIAFLLLFAYVLLMDFHSVPHTPELILYALVFVLFCDEVRQWYMNGVNYFTDLWNVMDTLGLFYFIAGIVFRLHSSNKSSLYSGRVIFCLDYIIFTLRLIHIFTVSRNLGPKIIMLQRMLIDVFFFLFLFAVWMVAFGVARQGILRQNEQRWRWIFRSVIYEPYLAMFGQVPSDVDSTTYDFSHCTFSGNESKPLCVELDEYNLPRFPEWITIPLVCIYMLSTNILLVNLLVAMFGYTVGIVQENNDQVWKFQRYFLVQEYCNRLNIPFPFVVFAYFYMVVKKCFKCCCKEKNTESSACCFRNEDNETLAWEGVMKENYLVKINTKANDNAEEMRHRFRQLDTKLNDLKGLLKEIANKIK
B2: GFP-tagged wild type TRPM8 (GFP-TRPM8), Q8R455 1-1104 (protein)
chain: B1 chain

Legend:
[1] = target: T1, Flag-tagged full-length TRPM8 (Flag-TRPM8) (rat), Q8R455; assay: cross-linking; details: remark: other sources report otherwise
[2] = target: T1, Flag-tagged full-length TRPM8 …; assay: co-IP; details: remark: other sources report otherwise

Binder | binding [1] | binding [2]
B1 | binds | –
B2 | – | binds
